Screen size: about 260,000 compounds; about 1,500 (0.58%) were called active. Inconclusive means that the source gave no clear call. Such entries were picked first, then a sample of the others.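 How the source made its calls: active means inhibition above a set limit at one or more doses, reproduced on every date tested; inconclusive means results disagree between test dates, or hit never tested in dose response; inactive means the rest.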
molecular target: Virion infectivity factor (Human immunodeficiency virus type 1 group M subtype B (isolate BH10)) + Virion infectivity factor (Human immunodeficiency virus type 1 group M subtype B (isolate BRU/LAI)) + Virion infectivity factor (Human immunodeficiency virus type 1 group M subtype B (isolate PCV12)) + Virion infectivity factor (Human immunodeficiency virus type 1 group M subtype B (isolate HXB2)) + DNA dC->dU-editing enzyme APOBEC-3G (Homo sapiens) (UniProt P69720+P69721+P69722+P69723+Q9HC16); experiment: inhibitors of Vif binding to APOBEC3G peptide, primary screen, biochemical, TR-FRET, GST-Vif 1-94, biotin-A3G peptide, dose response retest (AID 1117319); conditions: hits give high values;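 further: Vif residues 1-94 fused to GST binding biotinylated APOBEC3G peptide 110-148; 0% = full assay without inhibitor and 100% = GST in place of GST-Vif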

Amino acid sequences for entries named in this document (tags omitted). A change or cut given only in a name is not applied to a line headed by its entry.
UniProt P69720: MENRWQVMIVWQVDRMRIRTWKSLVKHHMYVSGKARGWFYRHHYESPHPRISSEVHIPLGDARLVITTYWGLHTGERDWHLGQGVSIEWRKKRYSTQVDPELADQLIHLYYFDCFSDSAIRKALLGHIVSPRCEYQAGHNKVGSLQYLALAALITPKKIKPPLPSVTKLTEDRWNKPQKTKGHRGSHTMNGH
UniProt P69721: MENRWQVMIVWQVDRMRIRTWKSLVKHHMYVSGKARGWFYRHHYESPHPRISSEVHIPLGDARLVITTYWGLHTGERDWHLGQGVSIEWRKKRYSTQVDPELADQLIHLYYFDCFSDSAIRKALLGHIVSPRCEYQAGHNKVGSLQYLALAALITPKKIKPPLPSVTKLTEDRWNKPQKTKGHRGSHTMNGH
UniProt P69722: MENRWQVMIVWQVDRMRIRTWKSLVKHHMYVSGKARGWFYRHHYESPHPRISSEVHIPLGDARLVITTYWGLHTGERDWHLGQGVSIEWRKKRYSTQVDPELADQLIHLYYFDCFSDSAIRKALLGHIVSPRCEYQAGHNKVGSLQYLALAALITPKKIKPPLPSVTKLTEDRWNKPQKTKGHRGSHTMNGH
UniProt P69723: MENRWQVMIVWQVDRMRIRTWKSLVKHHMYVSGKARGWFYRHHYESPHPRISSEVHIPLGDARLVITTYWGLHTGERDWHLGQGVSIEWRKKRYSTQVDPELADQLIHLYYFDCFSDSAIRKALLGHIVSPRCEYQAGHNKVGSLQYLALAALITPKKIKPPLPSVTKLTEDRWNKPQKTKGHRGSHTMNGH
UniProt Q9HC16: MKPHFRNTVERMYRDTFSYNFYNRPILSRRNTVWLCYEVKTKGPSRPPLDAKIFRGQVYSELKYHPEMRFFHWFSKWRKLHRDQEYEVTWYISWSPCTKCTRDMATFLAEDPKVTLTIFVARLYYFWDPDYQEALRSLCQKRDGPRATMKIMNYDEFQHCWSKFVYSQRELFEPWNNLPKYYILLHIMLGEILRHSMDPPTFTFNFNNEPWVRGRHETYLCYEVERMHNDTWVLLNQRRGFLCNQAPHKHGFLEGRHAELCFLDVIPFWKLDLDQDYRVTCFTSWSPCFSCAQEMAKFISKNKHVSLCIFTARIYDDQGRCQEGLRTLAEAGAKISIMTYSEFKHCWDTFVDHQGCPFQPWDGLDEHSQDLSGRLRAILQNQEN

| Structure (SMILES) | inhibition |
| --- | --- |
| N=C1/C(=C\c2ccc(-c3cccc(Cl)c3)o2)C(=O)N=C2SC=C(c3ccccc3)N12 | inconclusive: 37.4% |
| O=[N+]([O-])c1ccc(O)c(C=Nc2ccc3oc(Cc4ccc(Cl)cc4)nc3c2)c1 | inconclusive: 45.5% |
| Cc1cc(Cl)n2nc(C)c(-c3ccc(Cl)cc3)c2n1 | inconclusive: 43.7% |
| O=[N+]([O-])c1cccc(N=Nc2ccc(O)cc2O)c1 | inactive: 5.74% |
| CCOC(=O)CSc1nsc(SCC(=O)OCC)c1C#N | inconclusive: 33.4% |
| Oc1ccc(-c2nc3ncccn3c2Nc2ccc3c(c2)OCO3)cc1 | inconclusive: 42.2% |
| O=C(c1ccco1)N1CCN(Cc2cc(=O)c(OCc3cccc(F)c3)co2)CC1 | inactive: -1.67% |
| Cc1ccc(NC2=NCCCCC2)cc1 | inactive: 0.64% |
| COCCCNC(=S)N1CCN(c2ccccc2)CC1 | inconclusive: 53.3% |
| O=C(NC1CC1)C1=C[C@@H](C2CCCCC2)C[C@@H](OCCCCO)O1 | inconclusive: 48.7% |
| O=C(O)c1cc(-c2ccco2)nn1-c1ccc(Cl)cc1 | inconclusive: 52.2% |
| COc1ccc(C(=O)N2CCC(C(=O)Nc3ccc4c(c3)OCCO4)CC2)cc1 | inconclusive: 34.8% |
| O=C(CN1CCN(S(=O)(=O)c2ccccc2)CC1)Nc1ccc2c(c1)OCO2 | inconclusive: 35.6% |
| COc1ccc(NC(=O)CN(Cc2ccccc2)Cc2ccccc2)cc1S(N)(=O)=O | inconclusive: 35.1% |
| Cc1cc(C)c(C(=O)/C=C/c2cccs2)c(=O)[nH]1 | inactive: 1.47% |
| CCCCN(C)C(=O)CCCCn1c(=O)[nH]c2cc(OCC)c(OCC)cc2c1=O | inconclusive: 33.6% |
| N#C/C(=C\c1ccc(OCc2ccccc2)cc1)C(=O)Nc1nc2c(s1)CCN(Cc1ccccc1)C2 | inconclusive: 54.1% |
| O=C(Nc1ccccc1C(=O)O)c1ccc2ccccc2n1 | inconclusive: 40.3% |
| COC(=O)c1ccc(CN2C(=O)NC(c3ccccc3)(c3ccccc3)C2=O)o1 | inconclusive: 43.6% |
| COc1nnc(-c2ccc(C)c(S(=O)(=O)NC(C)C)c2)c2ccccc12 | inactive: -9.93% |
| N#Cc1cccnc1Nc1ccc(Cl)cc1 | inactive: 8.98% |
| Cc1[nH]c2ccccc2c1C(=O)CSc1ccc(Cl)cc1 | inconclusive: 51.7% |

Of the compounds above, 3 contain a cyano group.

| Structure (SMILES) | inhibition |
| --- | --- |
| CCOC(=O)CSc1nsc(SCC(=O)OCC)c1C#N | inconclusive: 33.4% |
| N#C/C(=C\c1ccc(OCc2ccccc2)cc1)C(=O)Nc1nc2c(s1)CCN(Cc1ccccc1)C2 | inconclusive: 54.1% |
| N#Cc1cccnc1Nc1ccc(Cl)cc1 | inactive: 8.98% |

(listing goes on)

| Structure (SMILES) | inhibition |
| --- | --- |
| CCOc1ccc(/C(O)=C2/C(=O)C(=O)N(c3cc(C)on3)C2c2ccc(C(=O)OC)cc2)cc1 (stereo not drawn) | inconclusive: 30.6% |
| CC(C(=O)NCc1ccc2c(c1)OCO2)c1ccc([N+](=O)[O-])cc1 (stereo not drawn) | inactive: 6.03% |
| O=C(N/N=C/c1cn(Cc2ccccc2)c2ccccc12)c1ccncc1 | inactive: 8.92% |
| COc1cc(F)ccc1S(=O)(=O)N1CCN(c2ccccc2)CC1 | inconclusive: 45.8% |
| Fc1ccc(N2N=C(c3cccs3)CC2c2ccco2)c(F)c1 (stereo not drawn) | inconclusive: 43.4% |
| CC1(C)CC(=O)C(C=Nc2ccc(O)cc2)=C(O)C1 | inactive: 21.5% |
| COc1ccccc1NC(=S)NCCSc1ccc(C)cc1 | inactive: 9.9% |
| O=C(Nc1ccc(F)cc1)C(Sc1nc2ccccc2[nH]1)c1ccccc1 (stereo not drawn) | inconclusive: 40.2% |
| C=CCn1c(NC(=O)c2ccccc2Cl)c(C#N)c2nc3ccccc3nc21 | inconclusive: 48.6% |
| Clc1nnc(NN=C2CCCC2)c2ccccc12 | inconclusive: 33.6% |
| Cc1cc(O)ccc1Nc1nc2ccccc2nc1Nc1ccc(O)cc1C | inconclusive: 61.6% |
| O=S1(=O)CC(N2CCCCC2)C(N2CCCCC2)C1 (stereo not drawn) | inconclusive: 33.6% |
| CCN(CC)S(=O)(=O)c1cc(NC(=O)CSc2nnc(-c3cccs3)o2)ccc1C | inconclusive: 39.4% |
| CC(=O)c1ccc(OCc2cc(C(=O)N3CCC[C@H]3CO)no2)cc1 | inactive: 1.22% |
| COc1cc(CNc2ccc3[nH]c(=O)[nH]c3c2)ccc1OCC(=O)NC(C)(C)C | inconclusive: 53.3% |
| Cc1nc(-c2ccccc2)c(-c2ccccc2)[nH]1 | inconclusive: 48.4% |
| Cc1nn(-c2cccc(Cl)c2)c2nc(-c3ccco3)cc(C(=O)O)c12 | inconclusive: 37.5% |
| O=C(COC(=O)c1cn(-c2ccccc2)nc1-c1ccccc1)c1cccc([N+](=O)[O-])c1 | inconclusive: 49.8% |
| O=C(NCc1ccco1)c1cnn2c(C(F)(F)F)cc(-c3ccco3)nc12 | inconclusive: 35.9% |
| O=C(Nc1cccc2ccccc12)c1ccc(Cn2cc(Cl)cn2)cc1 | inconclusive: 43.9% |
| CCOC(=O)N1CCC(N2CC34C=CC(O3)C(C(=O)Nc3ccc(F)cc3)C4C2=O)CC1 (stereo not drawn) | inactive: 5.89% |
| O=c1[nH]c2ccccc2n2c(-c3ccncc3)nnc12 | inactive: 4.55% |

Quoted at random: 2 compounds from above, in no set order.

| Structure (SMILES) | inhibition |
| --- | --- |
| CC1(C)CC(=O)C(C=Nc2ccc(O)cc2)=C(O)C1 | inactive: 21.5% |
| Cc1cc(O)ccc1Nc1nc2ccccc2nc1Nc1ccc(O)cc1C | inconclusive: 61.6% |

The listing continues:

| Structure (SMILES) | inhibition |
| --- | --- |
| O=C(COC(=O)c1ccccc1Nc1ccc(SC(F)F)cc1)NC1CC1 | inactive: -3.33% |
| CC1CC(C)CN(C(=O)CSc2nnc(-c3ccc(Cl)s3)o2)C1 (stereo not drawn) | inconclusive: 51.5% |
| C=CCNCC#CCOc1ccc(OC)cc1 | inconclusive: 33.4% |
| CCOc1ccc(NC(=O)CN(C)CC(=O)Nc2ccccc2SC)cc1OCC | inconclusive: 51.6% |
| O=C(Nc1ccc(F)cc1)C(=O)C1C(=O)Nc2ccccc21 (stereo not drawn) | inactive: -6.37% |
| CCN(CC)S(=O)(=O)c1ccc(S(=O)(=O)Nc2cc3c(cc2C(C)=O)OCO3)cc1 | inconclusive: 43.1% |
| C=CCOc1cccc(C2/C(=C(\O)c3ccc(F)cc3)C(=O)C(=O)N2CCN(C)C)c1 (stereo not drawn) | inconclusive: 59.4% |
| Cc1ccc(C2NC(c3ccc(C)cc3)C(C)C(=O)C2C)cc1 (stereo not drawn) | inconclusive: 44.4% |
| COc1ccc(C2NC3=C(CCC3)C3(C#N)C4(N=C(N)C23C#N)OCCO4)cc1 (stereo not drawn) | inconclusive: 48.9% |
| CCc1ccc2[nH]c(=O)c(C3C(C#N)=C(N)Oc4c3ccc3cccnc43)cc2c1 (stereo not drawn) | inconclusive: 47.1% |
| Cc1onc(-c2c(Cl)cccc2Cl)c1C(=O)Nc1nc(C(C)(C)C)cs1 | inconclusive: 58.4% |
| COc1nc(NCCN2CCOCC2)nc(Nc2ccccc2)n1 | inconclusive: 42.3% |
| CCC(=O)N1c2ccccc2NC2=C(C(=O)CC(C)(C)C2)C1c1cccnc1 (stereo not drawn) | inconclusive: 37.7% |
| CC(C)(C)C1CCc2c(sc3c2C(=O)NC(c2ccco2)N3)C1 (stereo not drawn) | inconclusive: 40% |
| O=S(=O)(c1ccccc1)N1CCN(c2nc3ccccc3s2)CC1 | inconclusive: 34.9% |
| O=C(O)CCSCC(=O)Nc1c(C(=O)C2CC2)oc2ccccc12 | inconclusive: 61.3% |
| CCOc1ccc(OCC)c(NC(=O)CC2Oc3ccc(C)cc3NC2=O)c1 (stereo not drawn) | inconclusive: 35.4% |
| Nc1nc(Cn2nnc(-c3ccccc3F)n2)nc(N2CCOCC2)n1 | inactive: -5.97% |
| CCCOC(=O)c1c(N)sc2c1CCC2 | inconclusive: 56.5% |
| CC(NC(=O)COC(=O)c1cc(S(=O)(=O)N2CCOCC2)ccc1F)c1ccccc1 (stereo not drawn) | inactive: 4.22% |
| CCN(CC)S(=O)(=O)c1ccc2c(c1)nc(SCC(=O)N1CCCCCC1)n2-c1ccc(OC)cc1 | inconclusive: 36.6% |
| NC(=O)CC[C@@H]1NC(=O)C(Cc2ccc(O)cc2)NC(=O)c2cc([N+](=O)[O-])cc(F)c2NCCC[C@@H](C(N)=O)NC1=O (stereo partly drawn) | inconclusive: 47.1% |

| Structure (SMILES) | inhibition |
| --- | --- |
| Cc1ccccc1C1C2=C(Nc3[nH]n(-c4ccccc4)c(=O)c31)c1ccccc1C2=O (stereo not drawn) | inconclusive: 49% |
| CCOc1ccccc1N1CCN(CC(=O)Nc2nnc(CC)s2)CC1 | inconclusive: 42.2% |
| CC(=O)Cn1c(=O)oc2ccccc21 | inactive: 0.93% |
| Cc1cc(S(=O)(=O)N(Cc2ccc(F)cc2)CC2CCCO2)ccc1-n1cnnn1 (stereo not drawn) | inconclusive: 46.4% |
| O=C(CCNC(=O)c1ccc(Cl)cc1)NCc1ccccc1Cl | inactive: -1.5% |
| COCCn1c(C)cc(/C=C(\C#N)C(=O)OCC(=O)N(C)c2c(N)n(Cc3ccccc3)c(=O)[nH]c2=O)c1C | inactive: 10.7% |
| Cc1cccc(/N=C/c2c(O)cc(C)oc2=O)n1 | inconclusive: 35% |
| CCC(=O)NC(/C=C/c1ccccc1)c1cc([N+](=O)[O-])c2cccnc2c1O (stereo not drawn) | inconclusive: 34% |
| O=[N+]([O-])c1cc(/C=N/O)ccc1Sc1ccccc1 | inconclusive: 37.9% |
| O=C(CN1CCN(Cc2ccccc2Cl)CC1)N/N=C/c1ccccn1 | inconclusive: 53.5% |
| Cn1c(=O)oc2cc(S(=O)(=O)Nc3ccc(Cl)cc3F)ccc21 | inconclusive: 61.1% |
| CCCNC(=O)C(=O)c1cccn1-c1ccsc1C(=O)OC | inconclusive: 53.9% |
| CCOc1ccccc1Nc1nnc(SCC(=O)N2CCCC2)s1 | inconclusive: 44.7% |
| CN1CCc2nc(SCC(=O)Nc3cccc(F)c3)c(C#N)c(-c3cccs3)c2C1 | inconclusive: 57.6% |
| CCC(=O)OCCn1c(=O)c2cc3c(=O)n(CCOC(=O)CC)c(=O)c3cc2c1=O | inconclusive: 40% |
| CCN(C(=O)Cn1c(=O)oc2ccccc21)C1CCS(=O)(=O)C1 (stereo not drawn) | inconclusive: 46.9% |
| CCN(C(=O)CN1CCN(c2ccccc2)CC1)c1c(N)n(Cc2ccccc2)c(=O)[nH]c1=O | inactive: -6.89% |
| CCOC(=O)c1c(NC(=O)OC)sc2c1CCC2 | inconclusive: 35.8% |
| O=C(CSc1n[nH]c(-c2ccccc2)n1)NC(=O)NCc1ccco1 | inconclusive: 36.8% |
| CCN(CC)c1ccc(NC(=S)Nc2ccc(F)cc2)cc1 | inconclusive: 43.6% |
| COc1cc(/C=C2/N=C(c3ccccc3F)OC2=O)cc(Cl)c1OS(C)(=O)=O | inconclusive: 1.03% |
| O=C1NC(c2ccncc2)Nc2sc3c(c21)CCCC3 (stereo not drawn) | inconclusive: 52.6% |
